PubChem BioAssay AID1159601 | NIAID, 2016

Test: 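Which toll-like receptor pathway genes are needed for TNF promoter activation by Pam3CSK4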 (primary screen)
System: human THP-1 reporter cells differentiated with PMA into macrophage-like cells
Reagent: single siRNA against human genes
Time to read-out: ligand added 4 hours before read-out; cells assayed 48 to 72 hours after siRNA transfection
Treatment: Pam3CSK4 (TLR2 ligand) for 4 hours; dose not given
Measurement: 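TNF promoter dual-luciferase ratio measured 4 h after Pam3CSK4, converted to robust z-scores against negative controls and averaged across replicates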
Reading the numbers: TNF reporter z-score: higher = stronger TNF promoter reporter activity
Hit rule: 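The depositor grades each siRNA by the size of its mean z-score in either direction, with steps at 1, 1.5, 2 and 2.5; active calls sit near -1.5 or below, or near 1.5 or above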
Calls: active = clear change (up or down); inactive = little change
Shown is one part, drawn at random, of 756 deposited reagents. Of all reagents, 143 (19%) got an active call. 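Calls include both lowered and raised reporter signal; each row is a single siRNA, not a gene summary; Pam3CSK4 dose not stated.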 Entries without a mark were called inactive. Reagents against one gene are numbered here. Reagent sequences are not shown. Not given: the amount of reagent.

| Gene | reagent | TNF reporter z-score, replicate mean |
| --- | --- | --- |
| JUN (Jun proto-oncogene, AP-1 transcription factor subunit) | 1 | -0.906 |
| JUN (Jun proto-oncogene, AP-1 transcription factor subunit) | 2 | -3.07 (active) |
| JUN (Jun proto-oncogene, AP-1 transcription factor subunit) | 3 | -0.663 |
| JUN (Jun proto-oncogene, AP-1 transcription factor subunit) | 4 | -0.495 |
| JUN (Jun proto-oncogene, AP-1 transcription factor subunit) | 5 | -1.79 (active) |
| JUN (Jun proto-oncogene, AP-1 transcription factor subunit) | 6 | 0.294 |
| CXCL11 (C-X-C motif chemokine ligand 11) | 1 | -1.63 (active) |
| CXCL11 (C-X-C motif chemokine ligand 11) | 2 | 0.0883 |
| CXCL11 (C-X-C motif chemokine ligand 11) | 3 | -0.298 |
| CXCL11 (C-X-C motif chemokine ligand 11) | 4 | -0.51 |
| CXCL11 (C-X-C motif chemokine ligand 11) | 5 | -0.857 |
| CXCL11 (C-X-C motif chemokine ligand 11) | 6 | -0.525 |
| TRAF3 (TNF receptor associated factor 3) | 1 | 0.283 |
| TRAF3 (TNF receptor associated factor 3) | 2 | -0.738 |
| TRAF3 (TNF receptor associated factor 3) | 3 | -0.443 |
| TRAF3 (TNF receptor associated factor 3) | 4 | -0.421 |
| TRAF3 (TNF receptor associated factor 3) | 5 | -1.35 |
| TRAF3 (TNF receptor associated factor 3) | 6 | 0.098 |
| LY96 (lymphocyte antigen 96) | 1 | -0.764 |
| LY96 (lymphocyte antigen 96) | 2 | -0.186 |
| LY96 (lymphocyte antigen 96) | 3 | 1.99 (active) |
| LY96 (lymphocyte antigen 96) | 4 | -0.58 |
| LY96 (lymphocyte antigen 96) | 5 | 0.713 |
| LY96 (lymphocyte antigen 96) | 6 | 0.507 |
| TOLLIP (toll interacting protein) | 1 | -1.4 |
| TOLLIP (toll interacting protein) | 2 | -0.473 |
| TOLLIP (toll interacting protein) | 3 | 0.126 |
| TOLLIP (toll interacting protein) | 4 | -1.06 |
| TOLLIP (toll interacting protein) | 5 | -1.19 |
| TOLLIP (toll interacting protein) | 6 | -0.445 |
| MAPK1 (mitogen-activated protein kinase 1) | 1 | -0.0723 |
| MAPK1 (mitogen-activated protein kinase 1) | 2 | -0.399 |
| MAPK1 (mitogen-activated protein kinase 1) | 3 | -0.944 |
| MAPK1 (mitogen-activated protein kinase 1) | 4 | 0.0907 |
| MAPK1 (mitogen-activated protein kinase 1) | 5 | -1.02 |
| MAPK1 (mitogen-activated protein kinase 1) | 6 | 0.0179 |
| IRF5 (interferon regulatory factor 5) | 1 | -3.72 (active) |
| IRF5 (interferon regulatory factor 5) | 2 | -0.741 |
| IRF5 (interferon regulatory factor 5) | 3 | -0.88 |
| IRF5 (interferon regulatory factor 5) | 4 | -0.251 |
| IRF5 (interferon regulatory factor 5) | 5 | -2.15 (active) |
| IRF5 (interferon regulatory factor 5) | 6 | 1.61 (active) |
| DUSP2 (dual specificity phosphatase 2) | 1 | 0.132 |
| DUSP2 (dual specificity phosphatase 2) | 2 | 0.184 |
| DUSP2 (dual specificity phosphatase 2) | 3 | -2.81 (active) |
| DUSP2 (dual specificity phosphatase 2) | 4 | 0.154 |
| DUSP2 (dual specificity phosphatase 2) | 5 | 0.209 |
| DUSP2 (dual specificity phosphatase 2) | 6 | 0.0936 |
| TLR7 (toll like receptor 7) | 1 | 0.0849 |
| TLR7 (toll like receptor 7) | 2 | 0.0139 |
| TLR7 (toll like receptor 7) | 3 | -0.515 |
| TLR7 (toll like receptor 7) | 4 | -0.422 |
| TLR7 (toll like receptor 7) | 5 | 0.124 |
| TLR7 (toll like receptor 7) | 6 | -0.0411 |
| MAP2K2 (mitogen-activated protein kinase kinase 2) | 1 | -0.835 |
| MAP2K2 (mitogen-activated protein kinase kinase 2) | 2 | -0.334 |
| MAP2K2 (mitogen-activated protein kinase kinase 2) | 3 | -1.68 (active) |
| MAP2K2 (mitogen-activated protein kinase kinase 2) | 4 | 0.425 |
| MAP2K2 (mitogen-activated protein kinase kinase 2) | 5 | 0.563 |
| MAP2K2 (mitogen-activated protein kinase kinase 2) | 6 | -0.715 |
| FADD (Fas associated via death domain) | 1 | -0.287 |
| FADD (Fas associated via death domain) | 2 | -0.536 |
| FADD (Fas associated via death domain) | 3 | 0.191 |
| FADD (Fas associated via death domain) | 4 | -1.09 |
| FADD (Fas associated via death domain) | 5 | 0.0767 |
| FADD (Fas associated via death domain) | 6 | -2.17 (active) |
| TLR4 (toll like receptor 4) | 1 | 1.45 |
| TLR4 (toll like receptor 4) | 2 | -0.661 |
| TLR4 (toll like receptor 4) | 3 | 0.297 |
| TLR4 (toll like receptor 4) | 4 | 0.957 |
| TLR4 (toll like receptor 4) | 5 | -1.13 |
| TLR4 (toll like receptor 4) | 6 | -0.969 |
| LBP (lipopolysaccharide binding protein) | 1 | -0.676 |
| LBP (lipopolysaccharide binding protein) | 2 | -0.321 |
| LBP (lipopolysaccharide binding protein) | 3 | 1.32 |
| LBP (lipopolysaccharide binding protein) | 4 | -1.63 (active) |
| LBP (lipopolysaccharide binding protein) | 5 | 0.0446 |
| LBP (lipopolysaccharide binding protein) | 6 | 0.485 |
| NFKB1 (nuclear factor kappa B subunit 1) | 1 | -1.16 |
| NFKB1 (nuclear factor kappa B subunit 1) | 2 | -0.338 |
| NFKB1 (nuclear factor kappa B subunit 1) | 3 | -0.924 |
| NFKB1 (nuclear factor kappa B subunit 1) | 4 | -0.806 |
| NFKB1 (nuclear factor kappa B subunit 1) | 5 | 1.54 (active) |
| NFKB1 (nuclear factor kappa B subunit 1) | 6 | 0.811 |
| ITGAX (integrin subunit alpha X) | 1 | -0.873 |
| ITGAX (integrin subunit alpha X) | 2 | -1.17 |
| ITGAX (integrin subunit alpha X) | 3 | 0.898 |
| ITGAX (integrin subunit alpha X) | 4 | -0.466 |
| ITGAX (integrin subunit alpha X) | 5 | -0.998 |
| ITGAX (integrin subunit alpha X) | 6 | -0.541 |
| EP300 (EP300 lysine acetyltransferase) | 1 | 1.05 |
| EP300 (EP300 lysine acetyltransferase) | 2 | 0.135 |
| EP300 (EP300 lysine acetyltransferase) | 3 | 0.371 |
| EP300 (EP300 lysine acetyltransferase) | 4 | 0.2 |
| EP300 (EP300 lysine acetyltransferase) | 5 | -0.424 |
| EP300 (EP300 lysine acetyltransferase) | 6 | 1.33 |
| IL12B (interleukin 12B) | 1 | -1.3 |
| IL12B (interleukin 12B) | 2 | -0.219 |
| IL12B (interleukin 12B) | 3 | -1.13 |
| IL12B (interleukin 12B) | 4 | -0.676 |
| IL12B (interleukin 12B) | 5 | -1.85 (active) |
| IL12B (interleukin 12B) | 6 | -1.13 |
| MAP2K1 (mitogen-activated protein kinase kinase 1) | 1 | -0.662 |
| MAP2K1 (mitogen-activated protein kinase kinase 1) | 2 | -0.662 |
| MAP2K1 (mitogen-activated protein kinase kinase 1) | 3 | -1.49 |
| MAP2K1 (mitogen-activated protein kinase kinase 1) | 4 | -0.25 |
| MAP2K1 (mitogen-activated protein kinase kinase 1) | 5 | -0.141 |
| MAP2K1 (mitogen-activated protein kinase kinase 1) | 6 | 0.182 |
| TLR9 (toll like receptor 9) | 1 | -2.01 (active) |
| TLR9 (toll like receptor 9) | 2 | 0.727 |
| TLR9 (toll like receptor 9) | 3 | 2.15 (active) |
| TLR9 (toll like receptor 9) | 4 | 1.19 |
| TLR9 (toll like receptor 9) | 5 | -0.425 |
| TLR9 (toll like receptor 9) | 6 | 1.5 |
